Reference: paper PMC12442641
Results are given in words; binding and its absence hold for the method and conditions named. Binding seen in cells or lysates may run through a third protein. Some binding calls cover weakened binding; strength is not graded here. Blank lines part the entries; values can stand above or below the substance they belong to.

Protein sequences, listed by entry. Tags and fused reporters are not part of them.
UniProt O15550: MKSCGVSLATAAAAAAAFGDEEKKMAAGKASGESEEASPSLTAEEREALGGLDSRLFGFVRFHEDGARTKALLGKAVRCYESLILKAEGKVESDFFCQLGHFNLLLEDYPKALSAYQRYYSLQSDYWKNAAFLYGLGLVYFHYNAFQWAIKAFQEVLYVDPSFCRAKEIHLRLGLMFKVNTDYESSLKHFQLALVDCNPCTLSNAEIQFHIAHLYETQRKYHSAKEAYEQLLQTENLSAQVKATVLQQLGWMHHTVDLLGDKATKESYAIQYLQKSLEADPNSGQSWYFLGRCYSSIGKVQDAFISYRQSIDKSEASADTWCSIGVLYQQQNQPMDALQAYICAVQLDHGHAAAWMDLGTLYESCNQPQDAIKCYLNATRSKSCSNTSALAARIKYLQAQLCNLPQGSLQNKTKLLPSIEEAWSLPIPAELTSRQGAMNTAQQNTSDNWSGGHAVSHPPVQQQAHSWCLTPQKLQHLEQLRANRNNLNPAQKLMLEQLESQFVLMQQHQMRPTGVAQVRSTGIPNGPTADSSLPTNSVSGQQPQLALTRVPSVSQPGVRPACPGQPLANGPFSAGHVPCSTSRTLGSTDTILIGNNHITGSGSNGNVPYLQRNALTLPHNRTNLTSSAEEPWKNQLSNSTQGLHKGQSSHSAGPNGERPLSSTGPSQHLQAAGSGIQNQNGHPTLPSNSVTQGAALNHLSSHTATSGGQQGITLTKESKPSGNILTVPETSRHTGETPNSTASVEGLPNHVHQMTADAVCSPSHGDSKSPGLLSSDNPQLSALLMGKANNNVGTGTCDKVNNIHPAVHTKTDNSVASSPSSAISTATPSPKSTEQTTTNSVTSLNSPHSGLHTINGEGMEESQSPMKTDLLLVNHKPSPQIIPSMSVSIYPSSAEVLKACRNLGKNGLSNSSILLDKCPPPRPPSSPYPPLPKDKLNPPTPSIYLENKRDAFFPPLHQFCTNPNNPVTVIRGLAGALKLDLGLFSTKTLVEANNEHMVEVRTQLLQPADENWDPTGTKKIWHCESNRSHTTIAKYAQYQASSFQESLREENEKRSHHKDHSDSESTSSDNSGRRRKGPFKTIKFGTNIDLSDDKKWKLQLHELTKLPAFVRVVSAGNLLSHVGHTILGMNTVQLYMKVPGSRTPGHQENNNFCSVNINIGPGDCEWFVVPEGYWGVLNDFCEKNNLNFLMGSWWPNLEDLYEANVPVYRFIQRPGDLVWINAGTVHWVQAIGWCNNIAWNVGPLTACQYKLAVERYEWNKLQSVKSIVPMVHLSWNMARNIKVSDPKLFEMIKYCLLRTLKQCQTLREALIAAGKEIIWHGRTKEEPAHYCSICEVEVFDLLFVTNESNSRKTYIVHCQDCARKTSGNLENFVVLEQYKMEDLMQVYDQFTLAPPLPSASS

Tests used:
[1] = molecular target: GB-UTX (ddGB-UTX) (human) (UniProt O15550); test: split reporter; dimerization-dependent fluorescent protein (ddFP) system; live HepG2 cells transiently transfected with GA-G3BP1, GB-UTX and RFP-TIA1; treated with TG (5 µM, 4 h) or SA (500 µM, 1 h)
[2] = molecular target: GB-UTX (ddGB-UTX) (human) (UniProt O15550); test: split reporter; dimerization-dependent fluorescent protein (ddFP) system; live HepG2 cells transiently transfected with GA-G3BP1, GB-UTX and RFP-TIA1; untreated
[3] = molecular target: UTX wildtype (UTX^WT, pFLAG-UTX) expressed in HEK293T cells (human) (UniProt O15550); test: co-IP; HEK293T cells co-transfected with tagged G3BP1 and UTX constructs; lysates in IP buffer incubated with specific antibodies and Dynabeads Protein G overnight at 4 °C; immunoblot
[4] = molecular target: UTX (ubiquitously transcribed tetratricopeptide repeat on chromosome X), endogenous in Huh7 cells (human (endogenous in Huh7)) (UniProt O15550); test: co-IP; endogenous proteins; cytoplasmic fraction (text: RG fraction) of Huh7 cells, control or TG- or SA-treated, immunoprecipitated with UTX antibody; immunoblot

binding [1]: binds
Substance: GA-G3BP1 (ddGA(GFPA)-G3BP1) (from UniProt Q13283 1-466)
binding [2]: no binding (condition: untreated cells (without TG or SA))

binding [3]: binds
Substance: EGFP-tagged G3BP1 (pEGFP-G3BP1) (from UniProt Q13283 1-466)

binding [4]: binds
Substance: G3BP1 (GTPase-activating protein SH3 domain-binding protein 1), endogenous in Huh7 cells (from UniProt Q13283 1-466)
